Laboratory results published in PubChem BioAssay AID256 (DTP/NCI, 2004).
The list shows only some results of the screen, not a fair sample: it is rich in T/C values a quarter to a half above the control, in often repeated tests (any T/C) and in doses without a T/C. Other doses and runs of a compound stand elsewhere. T/C is the treated group as % of the vehicle group. Some doses have a count of surviving animals in place of a T/C: the source holds a T/C of zero for them, seemingly a mark for toxic or unscored doses. Some survivor counts are full or nearly so, which does not show that the dose was tolerated: survival well below the control is almost never listed, so the zero probably covers shortened survival too. Counts of survivors are from the toxicity check (mostly the fifth day) where no day follows; animals may have died later. Schedules are NCI's codes, read here as Q, the interval in days (D) or hours (H), X, the number of doses. Some entries were tested several times; the values are given in rising order. Signs of the kind (2×) give the number of equal values in this list. Where survival is the endpoint, the PubChem record calls one and a half times the control and up active, and a quarter to a half above the control has no call in these data; cut-offs in other NCI protocols can differ. Some T/C values are followed by the survivors on the day toxicity was checked, most often the fifth; where none is given, no animal had died by that day.

System: CD2F1 mice, L1210 leukemia ip, survival T/C
Assay: NCI In Vivo Anticancer Drug Screen. Data for tumor model L1210 Leukemia (intraperitoneal) in CD2F1 (CDF1) mice
Conditions: T/C endpoint: mean survival time, higher T/C = longer survival
Summary of the method: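 Compound-dosed mice with transplantable tumor versus matched vehicle controls; endpoint ratio T/C reported.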

[1] = dose: 200.0 mg/kg/injection, schedule: Q01DX001 (ip), vehicle: saline
[2] = dose: 400.0 mg/kg/injection, schedule: Q01DX001 (ip), vehicle: saline
[3] = dose: 400.0 mg/kg/injection, schedule: Q04DX003 (ip), vehicle: saline with Tween-80
[4] = dose: 100.0 mg/kg/injection, schedule: Q04DX003 (ip), vehicle: saline
[5] = dose: 100.0 mg/kg/injection, schedule: Q01DX009 (ip), vehicle: saline with Tween-80
[6] = dose: 400.0 mg/kg/injection, schedule: Q01DX009 (ip), vehicle: saline with Tween-80
[7] = dose: 400.0 mg/kg/injection, schedule: Q04DX002 (ip), vehicle: saline with Tween-80
[8] = dose: 200.0 mg/kg/injection, schedule: Q01DX001 (ip), vehicle: saline with Tween-80
[9] = dose: 400.0 mg/kg/injection, schedule: Q01DX001 (ip), vehicle: saline with Tween-80
[10] = dose: 400.0 mg/kg/injection, schedule: Q04DX003 (ip), vehicle: saline
[11] = dose: 25.0 mg/kg/injection, schedule: Q01DX009 (ip), vehicle: other
[12] = dose: 200.0 mg/kg/injection, schedule: Q04DX002 (ip), vehicle: saline with Tween-80

O=[N+]([O-])c1ccccc1N=C(c1ccccc1)N(O)c1ccccc1
survivor count (dose: 37.5 mg/kg/injection, schedule: Q01DX009 (ip), vehicle: saline with Tween-80): 1 of 6 | survivor count (dose: 37.5 mg/kg/injection, schedule: Q04DX003 (ip), vehicle: saline with Tween-80): 4 of 6 | survivor count (dose: 75.0 mg/kg/injection, schedule: Q01DX001 (ip), vehicle: saline): 1 of 6 | survivor count (dose: 100.0 mg/kg/injection, schedule: Q01DX001 (ip), vehicle: saline): 0 of 6 | survivor count [1]: 3 of 6 | survivor count [2]: 0 of 6

O=C(O)COc1cccc(OCC(=O)O)c1
T/C [3]: 126 % of control

CCSCCNC1=C(C)C(=O)C2=C(C1=O)[C@H](COC(N)=O)[C@]1(OC)[C@H]3[C@@H](CN21)N3C (some centres undefined)
T/C (dose: 24.0 mg/kg/injection, schedule: Q01DX001 (ip), vehicle: distilled water + Tween-80): 143 % of control | T/C (dose: 48.0 mg/kg/injection, schedule: Q01DX001 (ip), vehicle: distilled water + Tween-80): 145 % of control [5 of 6 alive]

CC1(C)C(N2CCCCC2)CS1(=O)=O (centres undefined)
survivor count [4]: 2 of 6 | survivor count [1]: 0 of 6 | survivor count [2]: 0 of 6

COc1cc(C(C2=C(O)c3ccccc3C(=O)C2=O)C2=C(O)c3ccccc3C(=O)C2=O)cc(Br)c1O
survivor count (dose: 400.0 mg/kg/injection, schedule: Q01DX009 (ip), vehicle: alcohol): 5 of 6

CCC(O)C[As](=O)(O)c1ccc(Cl)cc1 (centres undefined)
survivor count (dose: 25.0 mg/kg/injection, schedule: Q01DX009 (ip), vehicle: saline with Tween-80): 0 of 6 | survivor count (dose: 50.0 mg/kg/injection, schedule: Q01DX009 (ip), vehicle: saline with Tween-80): 0 of 6 | survivor count [5]: 0 of 6 (2×) | survivor count (dose: 200.0 mg/kg/injection, schedule: Q01DX009 (ip), vehicle: saline with Tween-80): 1 of 6 | survivor count [6]: 0 of 6

CC(C)=CC(=O)CC(O)(C(F)(F)F)C(F)(F)Cl (centres undefined)
survivor count (dose: 400.0 mg/kg/injection, schedule: Q04DX003 (ip), vehicle: Klucel (hydroxypropylcellulose) (HPC)): 3 of 6

CC1=C(CCC#N)C(=O)C(CCC#N)C(C)(C)C1 (centres undefined)
survivor count [7]: 0 of 3

Cc1cccc(OCC(=O)O)c1
survivor count [3]: 0 of 6

Cc1cc(=O)[nH]c(=S)[nH]1
survivor count [7]: 0 of 3

COc1cc(-c2nc(-c3ccc(N=Cc4ccc(N(CCCOS(C)(=O)=O)CCCOS(C)(=O)=O)cc4)cc3)cs2)ccc1OCc1ccccc1
survivor count [5]: 6 of 6 | survivor count [6]: 6 of 6

O=[N+]([O-])/C=C\c1cc2c3c(c1)CCCN3CCC2
survivor count (dose: 50.0 mg/kg/injection, schedule: Q01DX001 (ip), vehicle: saline with Tween-80): 1 of 6 | survivor count (dose: 100.0 mg/kg/injection, schedule: Q01DX001 (ip), vehicle: saline with Tween-80): 0 of 6 | survivor count [8]: 0 of 6 and 1 of 6 | survivor count [9]: 0 of 6 and 1 of 6

O=Cc1cc(Cl)cc(Cl)c1O
survivor count [3]: 5 of 6

CCCCCC(C)C1(CCCC)NC(C)(C)CC(C)O1 (centres undefined)
survivor count [10]: 0 of 6

CO[C@H]1C[C@](C)(O)Cc2cc3c(c(O)c21)C(=O)c1c(O)cc2c(c1C3=O)O[C@@H]1O[C@@]2(C)[C@H](O)[C@@H](N(C)C)[C@@H]1O
T/C (dose: 1.56 mg/kg/injection, schedule: Q01DX009 (ip), vehicle: other, evaluated on day 30): 128, 133, 135 % of control | T/C (dose: 1.56 mg/kg/injection, schedule: Q01DX009 (ip), vehicle: other, evaluated on day 60): 114 % of control | T/C (dose: 3.12 mg/kg/injection, schedule: Q01DX009 (ip), vehicle: other): 135 % of control | T/C (dose: 3.13 mg/kg/injection, schedule: Q01DX009 (ip), vehicle: other): 142 and 146 % of control | T/C (dose: 6.25 mg/kg/injection, schedule: Q01DX009 (ip), vehicle: other, evaluated on day 30): 147, 160, 166, 183 % of control | T/C (dose: 6.25 mg/kg/injection, schedule: Q01DX009 (ip), vehicle: other, evaluated on day 60): 157 % of control | T/C (dose: 12.5 mg/kg/injection, schedule: Q01DX009 (ip), vehicle: other, evaluated on day 30): 177, 187, 212, 240 % of control | T/C (dose: 12.5 mg/kg/injection, schedule: Q01DX009 (ip), vehicle: other, evaluated on day 60): 193 % of control | T/C (dose: 12.5 mg/kg/injection, schedule: Q01DX009 (oral), vehicle: saline): 140 % of control | T/C [11]: 114 (2×), 115, 125 % of control | survivor count [11]: 6 of 6

Cc1cc(N=C(N)N)ccc1C(=O)Oc1ccc([N+](=O)[O-])cc1
survivor count (dose: 100.0 mg/kg/injection, schedule: Q01DX009 (ip), vehicle: other): 0 of 6 | survivor count (dose: 200.0 mg/kg/injection, schedule: Q01DX009 (ip), vehicle: other): 0 of 6

CCOC(=O)CC1=Nc2c(Cl)ncnc2NN1
survivor count (dose: 400.0 mg/kg/injection, schedule: Q01DX001 (ip), vehicle: carboxymethylcellulose (CMC)): 2 of 6

CC[n+]1c(-c2ccccc2)c2cc(N)ccc2c2ccc(N)cc21
T/C (dose: 2.5 mg/kg/injection, schedule: Q01DX009 (ip), vehicle: water): 97, 103, 106, 112 % of control | T/C (dose: 5.0 mg/kg/injection, schedule: Q01DX009 (ip), vehicle: water): 112, 114 (2×), 122 % of control | T/C (dose: 10.0 mg/kg/injection, schedule: Q01DX009 (ip), vehicle: water): 117, 118, 126, 127 % of control | T/C (dose: 20.0 mg/kg/injection, schedule: Q01DX005 (ip), vehicle: water): 138 % of control | T/C (dose: 20.0 mg/kg/injection, schedule: Q01DX009 (ip), vehicle: water): 117, 124, 125, 139 % of control [5 of 6 alive] | survivor count (dose: 32.0 mg/kg/injection, schedule: Q01DX009 (ip), vehicle: water): 6 of 6 | survivor count (dose: 40.0 mg/kg/injection, schedule: Q01DX005 (ip), vehicle: water): 6 of 6 | survivor count (dose: 40.0 mg/kg/injection, schedule: Q01DX009 (ip), vehicle: water): 4 of 6 and 5 of 6

CC(=O)CC(C)=O.CC(=O)CC(C)=O.O.O.[Co]
survivor count (dose: 75.0 mg/kg/injection, schedule: Q04DX003 (ip), vehicle: saline with Tween-80): 0 of 6 | T/C (dose: 75.0 mg/kg/injection, schedule: Q04DX003 (ip), vehicle: saline): 125 % of control | survivor count [4]: 3 of 6 | survivor count (dose: 200.0 mg/kg/injection, schedule: Q04DX003 (ip), vehicle: saline): 0 of 6 | survivor count [10]: 0 of 6

CCC1(C)C=CCC(C)(C)S1 (centres undefined)
survivor count [7]: 3 of 3

CC12COC(=O)C1(C)C1CCC2O1 (centres undefined)
survivor count (dose: 20.0 mg/kg/injection, schedule: Q01DX002 (ip), vehicle: saline with Tween-80): 1 of 3 | survivor count (dose: 100.0 mg/kg/injection, schedule: Q04DX002 (ip), vehicle: saline with Tween-80): 0 of 3 | survivor count [12]: 0 of 3 | survivor count [7]: 0 of 3

c1c(NC2=NCCO2)cc2c3c1CCCN3CCC2
survivor count [3]: 2 of 6

c1ccc([P+](c2ccccc2)(c2ccccc2)C2OCCO2)cc1
survivor count [8]: 0 of 6 | survivor count [9]: 0 of 6

COc1ccc(COc2ccc([N+](=O)[O-])cc2)cc1
survivor count [12]: 3 of 3

CCCC(C#CCN(C)C)N(C)C (centres undefined)
survivor count (dose: 100.0 mg/kg/injection, schedule: Q01DX009 (ip), vehicle: saline): 6 of 6 | survivor count (dose: 200.0 mg/kg/injection, schedule: Q01DX009 (ip), vehicle: saline): 0 of 6 | survivor count (dose: 400.0 mg/kg/injection, schedule: Q01DX009 (ip), vehicle: saline): 0 of 6
